Laboratory results published in paper PMC4735692.

Target: ZF motif of RAP80 (GST pulldown)
Experiment: pull-down; GST pulldown with a GST fusion of one domain (Supplementary Fig. 3A,B); conditions not given

binding: binds
B1: TRAIP (partner in the RAP80 ZF GST pulldown) (protein, UniProt Q9BWF2 1-469)
chain: MPIRALCTICSDFFDHSRDVAAIHCGHTFHLQCLIQWFETAPSRTCPQCRIQVGKRTIINKLFFDLAQEEENVLDAEFLKNELDNVRAQLSQKDKEKRDSQVIIDTLRDTLEERNATVVSLQQALGKAEMLCSTLKKQMKYLEQQQDETKQAQEEARRLRSKMKTMEQIELLLQSQRPEVEEMIRDMGVGQSAVEQLAVYCVSLKKEYENLKEARKASGEVADKLRKDLFSSRSKLQTVYSELDQAKLELKSAQKDLQSADKEIMSLKKKLTMLQETLNLPPVASETVDRLVLESPAPVEVNLKLRRPSFRDDIDLNATFDVDTPPARPSSSQHGYYEKLCLEKSHSPIQDVPKKICKGPRKESQLSLGGQSCAGEPDEELVGAFPIFVRNAILGQKQPKRPRSESSCSKDVVRTGFDGLGGRTKFIQPTDTVMIRPLPVKPKTKVKQRVRVKTVPSLFQAKLDTFLWS

These are yes or no findings as the source states them, for the method shown. In cells and extracts the contact can be indirect. A result given as binding can be weak or reduced; the word gives no strength. Where a sequence is shown, tags or fusion partners need not be part of it.
